Experimental data reported in patent US20230073781A1, “Systemic administration of peptides for the treatment of spinal cord injury and/or for remyelination” (AXOLTIS PHARMA, priority 2019, published 2023).
Values joined by “and” are separate entries in the source; they are usually repeats but may differ in a detail not shown here. Equal entries are not always repeated. At least one peptide structure holds a part that was inferred or is arguable (an end, a ring closure or a residue). Marks after values point to notes of the source that are not given here. Where a SMILES comes first, the peptide text is derived from it. Bridges are numbered along the chain shown (N, C = ends).

How the values were obtained:
human cortical neurons [1] = assay: Caspase 3/7 assay, human cortical neurons exposed to glutamate; format: cell-based; conditions: percentage of apoptotic neurons over total nuclei
human cortical neurons [2] = assay: LDH assay, human cortical neurons exposed to glutamate; format: cell-based; conditions: for Neuronal death (B), LDH content in the culture medium: percentage of vehicle control
human cortical neurons [3] = assay: Tuj1 immunofluorescence neurite growth, human cortical neurons exposed to glutamate; format: cell-based; conditions: percentage of vehicle control
Olig2-positive cells = assay: Olig2 immunostaining after lysolecithin injection; format: in vivo, mouse; conditions: 5 mg/kg i.p., D7
[4] = tested on: Myelin Binding Protein (MBP); assay: MBP immunostaining lesion area after lysolecithin injection; format: in vivo, mouse; conditions: 5 mg/kg i.p. every other day from D2
[5] = tested on: mice with focal lesion of the corpus callosum (lysolecithin); assay: MRI lesion volume after lysolecithin focal lesion of the corpus callosum; format: in vivo, mouse; conditions: 5 mg/kg i.p. every other day from D2
rat cortical neurons = assay: Glutamate-induced excitotoxicity in rat primary cortical neurons (MAP-2); format: cell-based; conditions: for Neurite length (cumulative length of MAP-2-positive neurites) / Neuronal survival (number of MAP-2-positive neurons): control = 100
[6] = glu 100 μM + NX218 100 μg/mL for 15 minutes
[7] = glu 100 μM + NX218 250 μg/mL for 15 minutes
[8] = glu 100 μM + NX218 500 μg/mL for 15 minutes
[9] = glu 20 μM + peptide 100 μg/mL for 20 minutes
[10] = glu 20 μM + peptide 250 μg/mL for 20 minutes
[11] = glu 20 μM + peptide 500 μg/mL for 20 minutes

N=C(N)NCCC[C@@H]1NC(=O)[C@H](CO)NC(=O)[C@@H](NC(=O)[C@H](CO)NC(=O)[C@H](CO)NC(=O)[C@H](Cc2c[nH]c3ccccc23)NC(=O)CNC(=O)[C@H](CO)NC(=O)[C@@H](N)Cc2c[nH]c3ccccc23)CSSC[C@@H](C(=O)NCC(=O)O)NC(=O)[C@H](CO)NC1=O [NX218] (H-WSGWSSCSRSCG-OH; disulfide 7-11)
Neuronal apoptosis (C), caspases 3/7-positive neurons (human cortical neurons [1]; [6]): 18.77*** %
Neuronal apoptosis (C), caspases 3/7-positive neurons (human cortical neurons [1]; [7]): 12.84%
Neuronal apoptosis (C), caspases 3/7-positive neurons (human cortical neurons [1]; [8]): 11.03*** %
Neuronal death (B), LDH content in the culture medium (human cortical neurons [2]; [6]): 169.1** %
LDH compared to glu-treated neurons (human cortical neurons [2]; glu 100 μM + NX218 250 μg/mL): −52.70%
Neuronal death (B), LDH content in the culture medium (human cortical neurons [2]; [7]): 149.8*** %
Neuronal death (B), LDH content in the culture medium (human cortical neurons [2]; [8]): 160.8*** %
Neurite extremities (F) (human cortical neurons [3]; [6]): 59.25%
Neurite length (D) (human cortical neurons [3]; [6]): 63.27* %
Neurite roots (E) (human cortical neurons [3]; [6]): 69.27* %
Neurite extremities (F) (human cortical neurons [3]; [7]): 67.51* %
Neurite length (D) (human cortical neurons [3]; [7]): 73.27** %
Neurite roots (E) (human cortical neurons [3]; [7]): 80.18*** %
Neurite extremities (F) (human cortical neurons [3]; [8]): 47.79%
Neurite length (D) (human cortical neurons [3]; [8]): 51.82%
Neurite roots (E) (human cortical neurons [3]; [8]): 61.69%
Olig2 cell density (Olig2-positive cells; CC Contralateral): 7964.2 per mm^2
Olig2 cell density (Olig2-positive cells; CC Ipsilateral): 5359.0 per mm^2
Olig2 cell density (Olig2-positive cells; Lesion): 8085.9±933.9 per mm^2 and 8085.9* per mm^2
MBP lesion area ([4]; first treated time point (day not given, D3)): 24.4 % of the ipsilateral CC
MBP lesion area ([4]; fourth treated time point (day not given, D21)): 17.2 % of the ipsilateral CC
MBP lesion area ([4]; third treated time point (day not given, D14)): 24.4 % of the ipsilateral CC
Lesion volume (MRI) ([5]; D 1 (before treatment initiation)): 0.769 mm^3
Lesion volume (MRI) ([5]; D 3): 0.766 mm^3
Lesion volume (MRI) ([5]; D 7): 0.73 mm^3 and 0.726 mm^3
Lesion volume (MRI) ([5]; D 14): 0.623 mm^3
Lesion volume (MRI) ([5]; D 21): 0.401 mm^3
protection from glutamate-induced neuronal death (rat cortical neurons; NX218 at 250 and 500 μg/mL, NX210 at its highest dose): protected rat cortical neurons from glutamate-induced neuronal death
Neurite length (cumulative length of MAP-2-positive neurites) (rat cortical neurons; [9]): 85.17
Neuronal survival (number of MAP-2-positive neurons) (rat cortical neurons; [9]): 77.5
Neurite length (cumulative length of MAP-2-positive neurites) (rat cortical neurons; [10]): 94.88
Neuronal survival (number of MAP-2-positive neurons) (rat cortical neurons; [10]): 85.28
cell death (rat cortical neurons; glu 20 μM + peptide 250 μg/mL, 29.40% for glu-treated neurons): 14.72%
total neurite network length (change) (rat cortical neurons; glu 20 μM + peptide 250 μg/mL, −36.93% for glu-treated neurons): −5.12%
Neurite length (cumulative length of MAP-2-positive neurites) (rat cortical neurons; [11]): 85.34
Neuronal survival (number of MAP-2-positive neurons) (rat cortical neurons; [11]): 82.92
protective effect on neurite network (rat cortical neurons; glu 20 μM + peptide 100, 250 and 500 μg/mL): fully restored neurite network
